Experimental data reported in the supplement of paper PMC9135407.
Values joined by “and” are separate entries in the source; they are usually repeats but may differ in a detail not shown here. Equal values may be shown once. Where a name gives a salt, the structure may show the parent alone. ± gives the standard deviation of the averaged measurements. This is one part of the list. Plates or batches differ in their baseline, so values are only roughly comparable.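 Culture-activated primary human stellate myofibroblasts, where regained lipid droplets signal inactivation. Value: share of Hoechst-counted cells above a per-plate Bodipy cutoff, in duplicate wells, with DMSO negative and nortriptyline positive controls on each plate. Hits: a control-normalized score above the plate's top-tenth-percentile nortriptyline wells, or one of a plate's three best wells. Final well concentrations are not given.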

Tested on: primary human hepatic stellate cells (donor 1)
Assay: percent Bodipy-positive cells; higher = more lipid droplet accumulation
Conditions: 48 h
[1] = library stock concentration: 10 mM
[2] = library stock concentration: 3.33 mM
[3] = library stock concentration: 80 uM
[4] = library stock concentration: 400 uM

## CCS(=O)(=O)N(C)[C@H]1c2cc(C#N)ccc2OC(C)(C)[C@@H]1O (racemic) [Chromanol 293B]
[1]
  percent Bodipy-positive cells: 7.03 ± 1.9%

## CCN1CCCC1CNC(=O)c1cc(S(N)(=O)=O)ccc1OC (single isomer, unassigned; (-)) [(-)-Sulpiride]
[1]
  percent Bodipy-positive cells: 11 ± 3.4%

## O=C1Nc2ccc(Cl)cc2/C1=C/c1cc(Cl)c(O)c(Cl)c1 [PKR Inhibitor, Negative Control]
[2]
  percent Bodipy-positive cells: 9.32 ± 1.4%

## O=C1Nc2ccc(Cl)cc2/C1=C/c1cc(Cl)c(O)c(Cl)c1
[3]
  percent Bodipy-positive cells: 12.3 ± 4.4%
[4]
  percent Bodipy-positive cells: 12.1 ± 1.3%
Library stock concentration: 2 mM
  percent Bodipy-positive cells: 7.47 ± 0.2%
[1]
  percent Bodipy-positive cells: 9.23 ± 0.53%

## O=C1c2c(O)ccc(O)c2C(=O)c2c(NCCNCCO)ccc(NCCNCCO)c21 [Mitoxantrone dihydrochloride]
  percent Bodipy-positive cells: 97.5 ± 3.5%

## O=C1c2c(O)ccc(O)c2C(=O)c2c(NCCNCCO)ccc(NCCNCCO)c21 [Mitoxantrone 2HCl]
Library stock concentration: 4.5 mM
  percent Bodipy-positive cells: 83.3 ± 24%

## O=C1c2c(O)ccc(O)c2C(=O)c2c(NCCNCCO)ccc(NCCNCCO)c21 [Mitoxantrone]
[2]
  percent Bodipy-positive cells: 100%

## O=C1c2c(O)ccc(O)c2C(=O)c2c(NCCNCCO)ccc(NCCNCCO)c21
[1]
  percent Bodipy-positive cells: 100%

## O=C1c2c(O)ccc(O)c2C(=O)c2c(NCCNCCO)ccc(NCCNCCO)c21 [Mitoxanthrone hydrochloride]
[1]
  percent Bodipy-positive cells: 61.2 ± 12%

## O=C1c2c(O)ccc(O)c2C(=O)c2c(NCCNCCO)ccc(NCCNCCO)c21 [Mitoxantrone HCl]
[2]
  percent Bodipy-positive cells: 100%
[1]
  percent Bodipy-positive cells: 91.7 ± 12%

## CCOC(=O)c1ccc(NC2CCCCC2)c(N)c1 [Ferrostatin-1 (Fer-1)]
[2]
  percent Bodipy-positive cells: 47.3 ± 0.75%
[1]
  percent Bodipy-positive cells: 64.1 ± 5%

## CCOC(=O)C1=C(C)NC(C)=C(C(=O)OC)C1c1cccc(Cl)c1Cl (stereo not drawn) [Felodipine]
  percent Bodipy-positive cells: 31.9 ± 3.4%
[2]
  percent Bodipy-positive cells: 9.22 ± 3%
Library stock concentration: 5.2 mM
  percent Bodipy-positive cells: 12.4 ± 1.2%
[1]
  percent Bodipy-positive cells: 40.4% and 56.9%

## C[C@H](CCC(=O)O)[C@H]1CC[C@H]2[C@@H]3C(=O)C[C@@H]4CC(=O)CC[C@]4(C)[C@H]3CC(=O)[C@]12C
[1]
  percent Bodipy-positive cells: 8.34 ± 3.3%

## C[C@H](CCC(=O)O)[C@H]1CC[C@H]2[C@@H]3C(=O)C[C@@H]4CC(=O)CC[C@]4(C)[C@H]3CC(=O)[C@]12C [Sodium dehydrocholate]
Library stock concentration: 4.7 mM
  percent Bodipy-positive cells: 3.91 ± 0.22%
[1]
  percent Bodipy-positive cells: 10.4 ± 0.57%

## C[C@H](CCC(=O)O)[C@H]1CC[C@H]2[C@@H]3C(=O)C[C@@H]4CC(=O)CC[C@]4(C)[C@H]3CC(=O)[C@]12C [Dehydrocholic acid]
  percent Bodipy-positive cells: 42.7 ± 17%
Library stock concentration: 5 mM
  percent Bodipy-positive cells: 10.8 ± 4.6%

## Cc1oc(S(=O)(=O)N2CCCCC2)cc1NC(=O)Nc1ccccc1
Library stock concentration: 1 mM
  percent Bodipy-positive cells: 10.7 ± 2.2%

## CO[C@H]1C[C@H](O[C@@H]2/C(C)=C/C[C@@H]3C[C@@H](C[C@]4(CC[C@H](C)[C@@H](C5CCCCC5)O4)O3)OC(=O)[C@@H]3C=C(C)/C(=N/O)[C@H]4OC/C(=C\C=C\[C@@H]2C)[C@]43O)O[C@@H](C)[C@@H]1O [Selamectin]
Library stock concentration: 2.6 mM
  percent Bodipy-positive cells: 4.29 ± 1.9%
[1]
  percent Bodipy-positive cells: 34.7 ± 5.1%

## CN1CCN(Cc2ccc(-c3cnc4[nH]cc(-c5ccc6[nH]ccc6c5)c4c3)cc2)CC1
[3]
  percent Bodipy-positive cells: 7.45 ± 0.042%
[4]
  percent Bodipy-positive cells: 19.3 ± 2.2%
[1]
  percent Bodipy-positive cells: 97.9 ± 1.4%

## CC(C)c1cc(C(C)C)c(CC(=O)NS(=O)(=O)Oc2c(C(C)C)cccc2C(C)C)c(C(C)C)c1 [Avasimibe]
[2]
  percent Bodipy-positive cells: 11.3 ± 4.5%
[1]
  percent Bodipy-positive cells: 26.4 ± 17%

## CC(C)(C)NC[C@H](O)COc1cccc2c1CCCC2=O [Levobunolol hydrochloride]
Library stock concentration: 6.1 mM
  percent Bodipy-positive cells: 11.9 ± 0.57%

## CC(C)(C)NC[C@H](O)COc1cccc2c1CCCC2=O [(-) -Levobunolol hydrochloride]
  percent Bodipy-positive cells: 12.7 ± 2%

## O=C(NNc1nc2cc(F)ccc2n2cccc12)c1cnccn1
[2]
  percent Bodipy-positive cells: 32 ± 1.6%
[1]
  percent Bodipy-positive cells: 79.5 ± 1.4%

## C[N+](C)(C)CCOC(N)=O [Carbachol]
  percent Bodipy-positive cells: 7.66 ± 1.3%
Library stock concentration: 11 mM
  percent Bodipy-positive cells: 4.54 ± 0.97%

## Nc1ncn(C2OC(CO)C(O)C2O)c(=O)n1 (stereo not drawn) [Azacytidine-5]
  percent Bodipy-positive cells: 8.65 ± 0.22%

## COC(=O)/C=C/C(=O)OC
[1]
  percent Bodipy-positive cells: 34.63 ± 0.27%

## COC(=O)/C=C/C(=O)OC [Dimethyl Fumarate]
[2]
  percent Bodipy-positive cells: 7.06 ± 0.081%
[1]
  percent Bodipy-positive cells: 7.5 ± 2.1%

## COc1ccc(-c2oc3cc(OC)ccc3c2C(=O)c2ccc(C#N)cc2)cc1
[1]
  percent Bodipy-positive cells: 8.13 ± 4%

## O=C(NC(Cc1cc(=O)[nH]c2ccccc12)C(=O)O)c1ccc(Cl)cc1 (stereo not drawn) [Rebamipide]
[2]
  percent Bodipy-positive cells: 9.93 ± 7.3%
Library stock concentration: 5.4 mM
  percent Bodipy-positive cells: 6.34 ± 2.6%
[1]
  percent Bodipy-positive cells: 16% and 30.4%

## CCN1C(=O)C=CC1=O [N-Ethylmaleimide]
[1]
  percent Bodipy-positive cells: 100%

## CCCCCC1OC1C/C=C\C/C=C\C/C=C\CCCC(=O)O (stereo not drawn)
Library stock concentration: 100 uM
  percent Bodipy-positive cells: 10.4 ± 6.6%

## O=C(Nc1c[nH]nc1-c1nc2ccc(CN3CCOCC3)cc2[nH]1)NC1CC1
[4]
  percent Bodipy-positive cells: 75.6 ± 2.9%

## CCN(CC)CCOc1ccc(/C(=C(/Cl)c2ccccc2)c2ccccc2)cc1.O=C(O)CC(O)(CC(=O)O)C(=O)O [Clomiphene citrate (Z,E)]
  percent Bodipy-positive cells: 85.41 ± 0.27%

## O=C(O)CCCN1CCC(O[C@@H](c2ccc(Cl)cc2)c2ccccn2)CC1 [Bepotastine Besilate]
[2]
  percent Bodipy-positive cells: 6.98 ± 3.5%
[1]
  percent Bodipy-positive cells: 23.3 ± 19%

## O=C(Nc1ncc(SCCN2CCCC2)s1)[C@]1(c2ccc(S(=O)(=O)C3CC3)cc2)C[C@H]1C1CCCCC1
[1]
  percent Bodipy-positive cells: 95.5 ± 6.4%

## CNc1nccc(-c2cccnc2Oc2cc(C(=O)Nc3cccc(C(F)(F)F)c3)ccc2C)n1
[1]
  percent Bodipy-positive cells: 87.8 ± 4.2%

## COc1cc(C(=O)NC2CCN(C)CC2)ccc1Nc1ncc2c(n1)N(C1CCCC1)CCC(=O)N2C(C)C
[1]
  percent Bodipy-positive cells: 95.3 ± 1.4%

## Cc1ccc(S(=O)(=O)OCC(=O)Nc2ccc(C(=O)O)c(O)c2)cc1
[2]
  percent Bodipy-positive cells: 6.76 ± 0.34%
[1]
  percent Bodipy-positive cells: 16.4 ± 0.41%
